Reference: publication PMC4226694
No constants are given. Whether binding was seen depends on the method and setting. In cells and extracts the contact can be indirect. Some binding calls cover weakened binding; strength is not graded here.

Amino acid sequences for entries named in this document (tags omitted). Residues count along the entry.
UniProt P98170: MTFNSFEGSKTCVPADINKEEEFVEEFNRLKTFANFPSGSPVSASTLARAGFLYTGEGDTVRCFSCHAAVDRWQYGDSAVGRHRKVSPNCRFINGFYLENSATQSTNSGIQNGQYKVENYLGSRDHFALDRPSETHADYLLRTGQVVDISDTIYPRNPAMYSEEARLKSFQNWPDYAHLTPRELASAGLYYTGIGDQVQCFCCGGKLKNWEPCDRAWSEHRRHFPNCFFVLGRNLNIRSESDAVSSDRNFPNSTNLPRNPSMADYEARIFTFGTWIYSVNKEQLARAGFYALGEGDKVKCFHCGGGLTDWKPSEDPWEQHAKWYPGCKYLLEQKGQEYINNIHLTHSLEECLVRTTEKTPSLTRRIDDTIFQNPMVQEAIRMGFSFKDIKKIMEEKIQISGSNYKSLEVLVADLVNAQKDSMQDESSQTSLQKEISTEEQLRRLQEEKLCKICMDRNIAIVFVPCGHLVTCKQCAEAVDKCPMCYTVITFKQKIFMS
UniProt P05161, residues 1-157: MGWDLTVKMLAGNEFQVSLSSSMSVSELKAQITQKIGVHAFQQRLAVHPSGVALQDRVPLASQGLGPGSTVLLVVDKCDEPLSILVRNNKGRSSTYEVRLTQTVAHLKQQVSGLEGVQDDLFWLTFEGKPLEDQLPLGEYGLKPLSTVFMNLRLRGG
UniProt O15392: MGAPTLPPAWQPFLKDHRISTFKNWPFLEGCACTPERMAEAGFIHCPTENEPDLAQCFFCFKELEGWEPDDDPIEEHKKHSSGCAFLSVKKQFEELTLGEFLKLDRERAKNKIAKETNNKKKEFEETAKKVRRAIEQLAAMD

Target: X-linked inhibitor of apoptosis (XIAP) (UniProt P98170)
Assay: co-IP; cells transfected with the indicated plasmids; IP lysis buffer (20 mM Tris-HCl pH 8.0, 150 mM NaCl, 1 mM EDTA, 0.5% Nonidet P-40, 1 mM dithiothreitol); supernatants immunoprecipitated with anti-Flag at 4°C overnight; immunoblot with anti-myc, anti-HA, anti-Flag

| Substance | binding |
| --- | --- |
| Interferon-stimulated Gene 15 (ISG15) (from UniProt P05161 1-157) | binds |
| Survivin (from UniProt O15392 1-142) | binds |
